A short description of this test: qHTS Assay for Lipid Storage Modulators in Drosophila S3 Cells.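 On cell number change: cells counted by Cell Tracker Red CMTPX staining in the red channel.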 Conditions: BODIPY lipid droplet fluorescence, 18-24 h; for cell number change: measured here: cell count max response, cells fed with added oleic acid. In outline: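 Drosophila S3 cells got compounds at several concentrations plus oleic acid (400 uM solution). Laser-scanning cytometry with 488 nm excitation read lipid droplets at 500-530 nm and cells at 575-640 nm. Percent activity was relative to 20 uM Triacsin C.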

Setting [1] is: measured here: lipid fluorescence (Fed channel) AC50, cells fed with added oleic acid.
[2] abbreviates: measured here: cell number channel AC50, cells fed with added oleic acid.

A word on the AC50: it is the concentration at which the activity in the assay is half-maximal. The low end stands for greater potency, the high end for weaker potency.

Some of the results follow. Further columns of the screen follow, without active or inactive calls. Most of these compounds were active or inconclusive in the main read-out, so they are no random draw. Potencies come from curve fits of mixed quality, noted in brackets.

Take `CCCCCc1ccc(-c2ccc(/C=C/C(=O)O)cc2)nc1`: the cell number change was -11.6%.

Consider `CC1(C)OC(=O)C(=CNCCc2ccc(O)cc2)C(=O)O1`, for which the cell number change is -42.3%. Moreover, the AC50 under setting [1] was 16.4 µM [falling, single point]. Turning to `O=C(Nc1nccs1)C1CC(=O)N(c2ccc(F)cc2)C1` (stereo not drawn), the cell number change came out at 15.3%. In addition, the AC50 under setting [1] is 29.1 µM [falling, single point]. As for `COC(=O)COc1ccc(S(=O)(=O)N2CCCCCC2)cc1C`, the cell number change was 9.13%. Still for that read-out and setting: for `O=C(N/N=C\c1cc2c(cc1Cl)OCO2)c1cccs1` the value was -4.11%.

As to `O=C(N/N=C/c1ccc([N+](=O)[O-])o1)c1cc2ccccc2o1`, the cell number change is -33.4%. Under setting [2], the AC50 was 16.4 µM [falling, single point]. In addition, the AC50 under setting [1] was 16.4 µM [falling, single point].

Regarding `Cc1ccc(C)c(N2CCN(C(=O)c3cn(C)c4ccc(S(=O)(=O)N(C)C)cc4c3=O)CC2)c1`, the cell number change was found to be 41.2%. Under setting [2], the AC50 is 18.4 µM [rising, partial curve]. Moreover, under setting [1], the AC50 was 29.1 µM [rising, single point]. In the case of `COc1ccc(S(=O)(=O)NNC(=O)Nc2ccc(C)cc2)c(OC)c1`, the cell number change is -3.12%. Besides, the AC50 under setting [2] was 0.0651 µM [falling, full curve, poor fit].

On to `Cc1nc2ccc(NS(=O)(=O)c3ccc(F)cc3F)cc2s1`, for which the AC50 under setting [1] is 29.1 µM [falling, single point]. Turning to `O=C(CCC(=O)N1CCN(Cc2ccc(F)cc2)CC1)Nc1nnc(C(F)(F)F)s1`, the cell number change was found to be 18%. Regarding `c1csc(-c2noc(CN3CCN4CCCC4C3)n2)c1` (stereo not drawn), the cell number change turned out to be 6.3%. Further, the AC50 under setting [1] was 29.1 µM [rising, single point]. For the compound `CCn1c(C)nc2cc(C(=O)NNC(=O)c3ccc(Cl)nc3)ccc21`, the cell number change was 10.6%.

Take `O=C(O)COc1ccccc1/C=N/n1c(C2CCCCC2)n[nH]c1=S`: the cell number change was 47.2%. In addition, under setting [2], the AC50 is 6.51 µM [rising, partial curve]. With `COCCNC(=O)C(=O)Nc1cc2c3c(c1)C(C)C(=O)N3CCC2` (stereo not drawn), the cell number change was 24.8%.

`C=CCOC(=O)C1=C(C)NC(SCC(=O)Nc2ccc(C)c(Cl)c2)=C(C#N)C1c1ccco1` (stereo not drawn): the cell number change is -42.9%. Besides, the AC50 under setting [2] is 14.6 µM [falling, partial curve]. Further, the AC50 under setting [1] was 29.1 µM [falling, single point]. As for `CC1C(=O)Nc2ccccc2N1C(=O)c1cccc(C(F)(F)F)c1` (stereo not drawn), the AC50 by setting is: under setting [2], 0.461 µM [rising, partial curve, poor fit]; under setting [1], 29.1 µM [falling, single point]. Consider `CCN1C(=O)S/C(=C/c2cn(C)c3ccccc23)C1=O`, for which the cell number change was -21.1%. As to `Cc1ccc(O)c(NC(=O)CSc2ccc(Cl)cc2)c1`, the cell number change was -32.3%. Besides, the AC50 under setting [1] is 1.26 µM [falling, full curve, poor fit]. On to `CC(C)CCN1CCN(Cc2nc3ccccc3s2)CC1CCO` (stereo not drawn), for which the cell number change was determined as 18.9%. The AC50 under setting [1] was 29.1 µM [rising, single point]. For `O/N=C/c1cn(-c2ccccc2)nc1-c1ccc2c(c1)OCCO2`, the cell number change was determined as 78.5%. For the same compound, under setting [2], the AC50 was 18.4 µM [rising, single point].

Take `O=C(CCCSc1nnc(SCCCC(=O)c2ccc(F)cc2)s1)c1ccc(F)cc1`: the cell number change was -14.3%. Moreover, the AC50 under setting [1] was 8.2 µM [falling, single point]. As for `O=C(CSc1nc(-c2ccccc2)c(-c2ccccc2)o1)NC1CCS(=O)(=O)C1` (stereo not drawn), the cell number change was 19.4%. On to `O=C(COc1ccc(F)cc1Cl)Nc1cc(S(=O)(=O)N2CCOCC2)ccc1N1CCCCC1`, for which the cell number change was 18.5%. The AC50 under setting [1] was 0.1 µM [rising, full curve, poor fit]. As to `Cc1ccc(C)c2c1[nH]c1ccccc12`, the cell number change stood at 26%. The AC50 under setting [1] was 9.2 µM [rising, partial curve]. On to `CC(CC(=O)Nc1cc(S(=O)(=O)N2CCOCC2)ccc1OCC(F)(F)F)c1ccccc1` (stereo not drawn), for which the cell number change was determined as 54.5%.

Consider `COc1ccc(N(C(=O)c2snc(C(N)=O)c2N)C(C(=O)NC2CCCC2)c2ccco2)c(OC)c1` (stereo not drawn), for which the cell number change came to 12.1%. For the same compound, the AC50 under setting [1] was 8.2 µM [falling, partial curve].

As for `CC(C)(C)C1=CC(=Nc2ccccc2N)C=C(C(C)(C)C)C1=O`, the AC50 under setting [2] was 0.00461 µM [falling, full curve, poor fit]. Consider `O=C(/C=C/c1ccco1)N1CCN(c2ncccn2)CC1`, for which the AC50 under setting [1] is 18.4 µM [rising, partial curve]. Turning to `Cc1ccc(S(=O)(=O)N(C)CC(=O)N2CCN(C(=O)c3ccco3)CC2)cc1`, the cell number change was determined as 20.2%. Besides, the AC50 under setting [1] was 0.231 µM [falling, full curve, poor fit]. For the compound `Cc1ccc(C(=O)Nc2c(C)cc(-c3ccc(Cl)cc3)oc2=O)cc1`, the cell number change is -2.87%. Regarding `CC1CC(=O)Nc2ccccc2N1S(=O)(=O)c1cccc(F)c1` (stereo not drawn), the cell number change was -21%. Besides, under setting [1], the AC50 was 4.61 µM [falling, full curve, poor fit]. With `Cc1ccc(NC(=O)COC(=O)C2CCC(=O)N2)c([N+](=O)[O-])c1` (stereo not drawn), the cell number change was -16.2%. Moreover, under setting [1], the AC50 is 0.116 µM [falling, full curve, poor fit].

Turning to `CC1CCCCC1NC(=O)/C(C#N)=C/c1ccc(OCC(N)=O)cc1` (stereo not drawn), the cell number change is -25.3%. In addition, the AC50 under setting [1] is 3.66 µM [falling, single point]. In the case of `Cc1ccc(N2C(=O)N3[C@H](c4ccc(Cl)cc4)[C@@H]4C(=O)N(C5CCCCC5)C(=O)[C@@H]4[C@]3(Cc3ccccc3)C2=O)cc1`, the cell number change is 12%. Under setting [1], the AC50 was 18.4 µM [rising, partial curve].

Consider `COc1cc(-c2cc(N3C(=O)Nc4ccccc4N3O)n[nH]2)cc(OC)c1OC`, for which the cell number change was 8.99%. The AC50 under setting [1] was 1.16 µM [falling, single point]. Turning to `COc1ccc(C2=C(C=C(C#N)C#N)C(c3ccccc3C)c3ccccc3O2)cc1OC` (stereo not drawn), the cell number change was -1.9%. Also, the AC50 under setting [1] is 29.1 µM [rising, single point]. As for `COc1cccc(OCC(=O)N(C)Cc2nc(-c3cccc(C)c3)no2)c1`, the cell number change was 16.1%. On to `O=c1cc(-c2ccc(O)c(O)c2)oc2ccc3ccccc3c12`, for which the cell number change was -65.2%. Also, the AC50 under setting [2] is 16.4 µM [falling, partial curve]. For the compound `CCOc1ccccc1CNC(=O)c1cc2occc2n1C`, the AC50 under setting [1] is 16.4 µM [rising, partial curve]. `O=C(CSc1nnc(-c2ccccc2)c2ccccc12)NCCN1C(=O)CSC1=O`: the cell number change was -3.23%. Moreover, under setting [2], the half-maximal activity concentration (AC50) is 0.411 µM [rising, full curve, poor fit]. For the same compound, under setting [1], the AC50 is 1.46 µM [falling, full curve]. Regarding `O=C(c1cc(Cl)nc2ccccc12)N(Cc1nnc(-c2ccc(Cl)cc2)o1)C1CC1`, the cell number change was 27.5%. Turning to `COc1cccc(N=Cc2c(O)n(-c3cccc(C)n3)c(=O)c3ccccc23)c1`, the cell number change is 43.7%. Further, under setting [2], the AC50 was 1.16 µM [rising, partial curve]. In addition, under setting [1], the AC50 was 1.3 µM [rising, partial curve].

With `COc1ccc(CNC(=O)c2nn(-c3ccccc3)cc2OC)cc1`, the cell number change came to 32.1%. For the same compound, the AC50 under setting [2] was 0.82 µM [rising, full curve]. Moreover, the AC50 under setting [1] was 1.16 µM [rising, single point]. As to `O=C(Nc1cccc(-c2cn3cccnc3n2)c1)c1ccco1`, the cell number change turned out to be 84.8%. For the compound `CCCc1ccc(-c2cc(N)n[nH]2)cc1`, the cell number change came out at 2.62%. In addition, the AC50 under setting [1] was 0.103 µM [rising, full curve, poor fit].

In the case of `COc1ccccc1-c1c(C(F)(F)F)oc2cc(OC(=O)c3ccc([N+](=O)[O-])cc3)ccc2c1=O`, the cell number change was -28.5%. Moreover, the AC50 under setting [1] is 18.4 µM [falling, single point]. For the compound `CCC(=O)N1CCN(c2ccc(NC(=O)c3ccc([N+](=O)[O-])o3)cc2)CC1`, the cell number change is -25.2%. For the same compound, the AC50 under setting [2] was 1.3 µM [falling, full curve]. The AC50 under setting [1] is 1.16 µM [falling, full curve]. As to `CCOC(=O)/C=C1\CN(C(C)c2ccccc2)S(=O)(=O)c2ccccc21` (stereo not drawn), the cell number change is 12.6%. Moreover, the AC50 under setting [1] is 0.164 µM [falling, full curve, poor fit]. `Cc1occc1-c1nnc(SCC(=O)N(C)CCC#N)n1N`: the cell number change is 8.38%. The AC50 under setting [1] is 3.26 µM [rising, single point]. Regarding `CCCCCN(C(=O)CCC(=O)OCC(=O)c1c(C)cc(C)cc1C)c1c(N)n(CCCC)c(=O)[nH]c1=O`, the cell number change was 13.3%. Moreover, the AC50 under setting [1] is 29.1 µM [rising, single point]. With `O=C(NC(Cc1ccccc1)C(=O)NCCc1ccccn1)c1ccccc1` (stereo not drawn), the cell number change was -20.5%.

`O=C(CN1CCN(Cc2ccc3c(c2)OCO3)CC1)Nc1ccc(F)cc1`: the cell number change is 3.22%. Besides, the AC50 under setting [1] is 29.1 µM [rising, single point].

With `O=C(CNS(=O)(=O)c1ccc(F)cc1)Nc1ccc(C(F)(F)F)cc1`, the cell number change amounted to 44.4%. Besides, the AC50 under setting [2] is 8.2 µM [rising, partial curve]. Under setting [1], the AC50 is 29.1 µM [rising, single point].

Consider `CC(=O)N1c2ccc(S(=O)(=O)N3CCC(C(=O)NC4CCC(C)CC4)CC3)cc2CC1C` (stereo not drawn), for which the cell number change worked out at 12%. On to `CC(=O)N1N=C(c2ccc(Cl)cc2)OC1(C)C`, for which the cell number change is 23.7%. For the same compound, under setting [1], the AC50 was 23.1 µM [falling, single point]. In the case of `Cc1ccc(S(=O)(=O)c2c(COC(=O)c3ccccc3Cl)c(-c3ccccc3)nn2C)cc1`, the cell number change is -11.2%. Same read-out and setting: for `CCOc1cc(C(=O)OCC(=O)Nc2cc(C)on2)ccc1OCC(C)C` the value was -11.4%.

As for `CC1CCN(C(NC(=O)c2ccco2)C(=O)c2ccccc2)CC1` (stereo not drawn), the cell number change was -3.45%. Further, the AC50 under setting [2] was 2.31 µM [rising, partial curve]. Take `Cc1ccc(C)n1-c1ccc(C(=O)NCc2cccnc2)cc1`: the cell number change worked out at 58.9%. The AC50 under setting [2] is 18.4 µM [rising, single point]. With `COc1ccccc1OCCNC(=O)C1CCN(C(C)=O)CC1`, the cell number change was -0.451%. `CCOc1ccc(NC(=S)NCCCn2ccnc2)cc1`: the cell number change was 12.7%. Besides, the AC50 under setting [1] was 2.06 µM [rising, partial curve, poor fit]. `Cc1ccc(NC(=O)c2ccc(CSc3nnc(-c4ccncc4)n3C)cc2)c(C)c1`: the cell number change amounted to 22.4%. For `N#Cc1cccc(NC(=O)c2ccc(S(=O)(=O)N3CCOCC3)cc2)c1`, the cell number change was 20.2%. The AC50 under setting [1] was 3.26 µM [falling, full curve, poor fit]. With `CC(=O)c1cccc(NC(=O)c2cc(-c3cccs3)on2)c1`, the cell number change was -7.98%. Also, the concentration at half-maximal activity (AC50) under setting [1] is 0.13 µM [falling, full curve, poor fit].
